Results are given in words; binding and its absence hold for the method and conditions named. In cells and extracts the contact can be indirect. Some entries that bind do so weakly or less than the wild type.
Target: Hypoxia Inducible Factor 1 Subunit Alpha (UniProt Q16665)
Experiment: co-IP; reciprocal co-immunoprecipitation; cells, antibodies and conditions not stated

The chains behind the UniProt entries cited, without tags or fusion partners.
UniProt Q16665: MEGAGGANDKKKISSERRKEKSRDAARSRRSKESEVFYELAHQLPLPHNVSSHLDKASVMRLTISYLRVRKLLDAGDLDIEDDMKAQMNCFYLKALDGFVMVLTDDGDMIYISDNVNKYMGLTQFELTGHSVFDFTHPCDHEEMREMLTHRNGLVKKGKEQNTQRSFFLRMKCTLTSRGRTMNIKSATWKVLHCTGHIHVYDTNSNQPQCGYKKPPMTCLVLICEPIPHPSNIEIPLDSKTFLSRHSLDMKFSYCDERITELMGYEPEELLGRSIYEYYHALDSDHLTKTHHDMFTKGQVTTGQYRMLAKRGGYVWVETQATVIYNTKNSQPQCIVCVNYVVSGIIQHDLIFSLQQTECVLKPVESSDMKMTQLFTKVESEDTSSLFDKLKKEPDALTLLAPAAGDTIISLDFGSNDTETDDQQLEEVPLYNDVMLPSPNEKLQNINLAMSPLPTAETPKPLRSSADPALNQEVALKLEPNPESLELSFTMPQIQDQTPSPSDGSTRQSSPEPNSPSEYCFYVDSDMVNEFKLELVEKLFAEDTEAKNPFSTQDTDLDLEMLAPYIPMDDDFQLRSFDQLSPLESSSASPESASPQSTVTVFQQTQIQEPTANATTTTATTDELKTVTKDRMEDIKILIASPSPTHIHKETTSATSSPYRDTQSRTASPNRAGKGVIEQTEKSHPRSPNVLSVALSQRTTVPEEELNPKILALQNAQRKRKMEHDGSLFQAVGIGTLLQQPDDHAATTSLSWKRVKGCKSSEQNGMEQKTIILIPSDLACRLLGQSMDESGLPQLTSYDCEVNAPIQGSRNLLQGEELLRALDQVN

binding: binds
B1: ETS Transcription Factor ELK3 (protein, UniProt P41970 1-407)
chain: MESAITLWQFLLQLLLDQKHEHLICWTSNDGEFKLLKAEEVAKLWGLRKNKTNMNYDKLSRALRYYYDKNIIKKVIGQKFVYKFVSFPEILKMDPHAVEISRESLLLQDSDCKASPEGREAHKHGLAALRSTSRNEYIHSGLYSSFTINSLQNPPDAFKAIKTEKLEEPPEDSPPVEEVRTVIRFVTNKTDKHVTRPVVSLPSTSEAAAASAFLASSVSAKISSLMLPNAASISSASPFSSRSPSLSPNSPLPSEHRSLFLEAACHDSDSLEPLNLSSGSKTKSPSLPPKAKKPKGLEISAPPLVLSGTDIGSIALNSPALPSGSLTPAFFTAQTPNGLLLTPSPLLSSIHFWSSLSPVAPLSPARLQGPSTLFQFPTLLNGHMPVPIPSLDRAASPVLLSSNSQKS

Source: publication PMC10347878
